Test results: paper PMC10403255

The chains behind the UniProt entries cited, without tags or fusion partners. Residues count along the entry.
UniProt P67809, 1-51: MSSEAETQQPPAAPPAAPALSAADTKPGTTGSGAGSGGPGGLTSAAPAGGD
UniProt P67809, 130-324: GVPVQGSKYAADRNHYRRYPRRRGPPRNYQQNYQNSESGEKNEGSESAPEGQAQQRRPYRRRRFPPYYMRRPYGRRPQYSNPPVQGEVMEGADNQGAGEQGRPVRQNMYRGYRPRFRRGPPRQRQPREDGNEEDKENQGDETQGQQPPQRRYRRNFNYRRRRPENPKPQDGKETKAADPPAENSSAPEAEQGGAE
UniProt P67809, 52-129: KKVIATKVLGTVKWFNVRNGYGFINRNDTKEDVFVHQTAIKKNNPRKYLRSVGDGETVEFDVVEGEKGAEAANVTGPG

Assays:
Assay in all cases: EMSA
YBAP1 = target: T1, YBAP1 (UniProt Q07021); conditions: binding not dependent on the UCAGU motif; 25 mM Tris pH 8.0, 100 mM KCl, 1.5 mM MgCl2, 0.2 mM EGTA, 0.05% Nonidet P-40, 1 mM DTT, 5% glycerol, 50 ug/ml heparin; 30 C 30 min, then ice 10 min; 1 nM RNA; recombinant protein; protein details: His6-MBP; label: 5'-IRD800CWN
T1 sequence (looked up, limits assumed): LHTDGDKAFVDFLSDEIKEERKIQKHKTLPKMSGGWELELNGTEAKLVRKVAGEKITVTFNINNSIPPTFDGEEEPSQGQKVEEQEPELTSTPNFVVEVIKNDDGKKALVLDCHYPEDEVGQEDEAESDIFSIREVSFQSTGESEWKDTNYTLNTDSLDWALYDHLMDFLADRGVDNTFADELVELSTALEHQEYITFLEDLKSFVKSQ

YBX1(1-51) A/P domain = YBX1(1-51) A/P domain (UniProt P67809); conditions: little or no affinity; 25 mM Tris pH 8.0, 100 mM KCl, 1.5 mM MgCl2, 0.2 mM EGTA, 0.05% Nonidet P-40, 1 mM DTT, 5% glycerol, 50 ug/ml heparin; 30 C 30 min, then ice 10 min; 1 nM RNA; recombinant protein; residues 1-51; protein details: His6-MBP; label: 5'-IRD800CWN
YBX1(130-324) CTD = YBX1(130-324) CTD (UniProt P67809); conditions: little or no affinity; 25 mM Tris pH 8.0, 100 mM KCl, 1.5 mM MgCl2, 0.2 mM EGTA, 0.05% Nonidet P-40, 1 mM DTT, 5% glycerol, 50 ug/ml heparin; 30 C 30 min, then ice 10 min; 1 nM RNA; recombinant protein; residues 130-324; protein details: His6-MBP; label: 5'-IRD800CWN
YBX1(52-129) CSD = YBX1(52-129) CSD (UniProt P67809); conditions: 25 mM Tris pH 8.0, 100 mM KCl, 1.5 mM MgCl2, 0.2 mM EGTA, 0.05% Nonidet P-40, 1 mM DTT, 5% glycerol, 50 ug/ml heparin; 30 C 30 min, then ice 10 min; 1 nM RNA; recombinant protein; residues 52-129; protein details: His6-MBP; label: 5'-IRD800CWN

## UGAGACAUUGUCAAAUACCCCA [miR223mut]
YBAP1
  binding result: binds

## UGUCAGUUUGUCAAAUACCCCA [miR223 (hsa-miR-223-3p)]
YBX1(1-51) A/P domain
  binding result: no binding
YBX1(130-324) CTD
  binding result: no binding
YBX1(52-129) CSD
  binding result: binds more weakly

For some of these results: A negative result means that nothing was seen under these conditions. For some of these results: The comparison behind a weaker result is the experiment's own reference, which may not be listed here. For some of these results: For at least one entry, the source does not settle the construct or the ends of the probe. For some of these results: At least one verdict was read from the data and is not stated in words by the source. For some of these results: Protein sequences can lack the tags named with them.
